{"source": "the supplement of paper PMC7666118", "note": "Some of the results follow.", "data": [{"compound": "COc1ccc(Cn2ccc3ccc(C(=O)NO)cc32)cc1", "assay": "dose-dependent thermal stabilisation call (2D-TPP, DLPTP, 10% FDR) (binary (1 = stabilised)); higher = stabilised by the compound", "details": "system: HL-60 intact cells; concentration range 0.04-10 µM", "values": [{"target": "PEA15 (UniProt Q15121)", "dose-dependent thermal stabilisation call": "inactive: 0"}, {"target": "PAIP1 (UniProt Q9H074)", "dose-dependent thermal stabilisation call": "inactive: 0"}, {"target": "PACS1 (UniProt Q6VY07)", "dose-dependent thermal stabilisation call": "inactive: 0"}, {"target": "NR2F2 (UniProt P24468)", "dose-dependent thermal stabilisation call": "inactive: 0"}, {"target": "PANK2 (UniProt Q9BZ23)", "dose-dependent thermal stabilisation call": "inactive: 0"}, {"target": "NUP85 (UniProt Q9BW27)", "dose-dependent thermal stabilisation call": "inactive: 0"}, {"target": "ORMDL2 (UniProt Q53FV1)", "dose-dependent thermal stabilisation call": "inactive: 0"}, {"target": "PCYT2 (UniProt Q99447)", "dose-dependent thermal stabilisation call": "inactive: 0"}, {"target": "PDK3 (UniProt Q15120)", "dose-dependent thermal stabilisation call": "inactive: 0"}, {"target": "NUCKS1 (UniProt Q9H1E3)", "dose-dependent thermal stabilisation call": "inactive: 0"}, {"target": "PANK3 (UniProt Q9H999)", "dose-dependent thermal stabilisation call": "inactive: 0"}, {"target": "OPA1 (UniProt O60313)", "dose-dependent thermal stabilisation call": "inactive: 0"}, {"target": "PFDN4 (UniProt Q9NQP4)", "dose-dependent thermal stabilisation call": "inactive: 0"}, {"target": "PFTK1 (UniProt O94921)", "dose-dependent thermal stabilisation call": "inactive: 0"}, {"target": "PCYOX1L (UniProt Q8NBM8)", "dose-dependent thermal stabilisation call": "inactive: 0"}, {"target": "NRBP1 (UniProt Q9UHY1)", "dose-dependent thermal stabilisation call": "inactive: 0"}, {"target": "PANK1 (UniProt Q8TE04)", "dose-dependent thermal stabilisation call": "inactive: 0"}, {"target": "PAPOLG (UniProt Q9BWT3)", "dose-dependent thermal stabilisation call": "inactive: 0"}, {"target": "PFDN5 (UniProt Q99471)", "dose-dependent thermal stabilisation call": "inactive: 0"}, {"target": "NUP93 (UniProt Q8N1F7)", "dose-dependent thermal stabilisation call": "inactive: 0"}, {"target": "PDLIM2 (UniProt Q96JY6)", "dose-dependent thermal stabilisation call": "inactive: 0"}, {"target": "NUDT5 (UniProt Q9UKK9)", "dose-dependent thermal stabilisation call": "inactive: 0"}, {"target": "PCLO (UniProt Q9Y6V0)", "dose-dependent thermal stabilisation call": "inactive: 0"}, {"target": "PABPN1 (UniProt Q86U42)", "dose-dependent thermal stabilisation call": "inactive: 0"}, {"target": "PEX5 (UniProt P50542)", "dose-dependent thermal stabilisation call": "inactive: 0"}, {"target": "P4HB (UniProt P07237)", "dose-dependent thermal stabilisation call": "inactive: 0"}, {"target": "ORAOV1 (UniProt Q8WV07)", "dose-dependent thermal stabilisation call": "inactive: 0"}, {"target": "PAPSS1 (UniProt O43252)", "dose-dependent thermal stabilisation call": "inactive: 0"}, {"target": "PEX12 (UniProt O00623)", "dose-dependent thermal stabilisation call": "inactive: 0"}, {"target": "PDLIM7 (UniProt Q9NR12)", "dose-dependent thermal stabilisation call": "inactive: 0"}, {"target": "OCRL (UniProt Q01968)", "dose-dependent thermal stabilisation call": "inactive: 0"}, {"target": "PDHA1 (UniProt P08559)", "dose-dependent thermal stabilisation call": "inactive: 0"}, {"target": "OIP5 (UniProt O43482)", "dose-dependent thermal stabilisation call": "inactive: 0"}, {"target": "PDK1 (UniProt Q15118)", "dose-dependent thermal stabilisation call": "inactive: 0"}, {"target": "PDSS1 (UniProt Q5T2R2)", "dose-dependent thermal stabilisation call": "inactive: 0"}, {"target": "PAFAH1B2 (UniProt P68402)", "dose-dependent thermal stabilisation call": "inactive: 0"}, {"target": "PDE4DIP (UniProt Q5VU43)", "dose-dependent thermal stabilisation call": "inactive: 0"}]}]}
